PubChem BioAssay AID504465 (National Center for Advancing Translational Sciences (NCATS), 2011)
The whole screen tested about 2,100 compounds, of which about 210 (10%) were called active. This list was built around the results that the source calls inconclusive (neither active nor inactive); the mix of calls is not that of the screen. Calls come from the whole dose curve; as a rule, active = well fitted inhibition curve with a large enough effect; inconclusive = small, poorly fitted or top-dose-only effect, or effect the other way; inactive = no such curve, though single readings can be large or run the other way. A potency beside an inconclusive call is a rough fit, not a confirmed value.

test: IN Cell qHTS Assay for Inhibitors of the mTORC1 Signaling Pathway in MEF (Tsc2-/-, p53-/-) Cells: Sytravon; settings: phospho-rpS6 immunofluorescence, 24 h; activity, negative = inhibition: at 38.3 µM (top of the series); note: nearly all actives have a fitted effect of over 60% in size;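 for activity, negative = inhibition: plate controls were DMSO wells for no effect and 7.5 nM rapamycin full pathway inhibition for full effect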
Procedure, shortened: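 Tsc2-/-, p53-/- MEFs (empty-vector) treated with compound 24 h at 37 degree Celsius, then fixed and stained for phospho-rpS6 Ser235/236 (Alexa-488) plus Hoechst. Reported as % positive cells, thresholds set against 7.5 nM rapamycin and DMSO wells.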
Potency is the fitted concentration of half-maximal effect.

SMILES | activity, negative = inhibition | Potency
Cc1ccc(NC(=O)Cn2c(=O)c(CNc3ccccc3)cc3cc4c(cc32)OCCO4)cc1 | inactive: 0% | –
Cc1nn(CCCC(=O)Nc2cccc(F)c2)c(=O)c2c1sc1ccccc12 | – | inconclusive: 0.521 µM [falling, full curve]
O=C1C2=C(Nc3ccccc3SC2c2ccccc2C(F)(F)F)c2ccccc21 (configuration not stated) | – | inconclusive: 23.3 µM [falling, single point]
O=C(Cn1cc(C(=O)c2ccco2)c2ccccc21)Nc1ccccc1Cl | – | inconclusive: 0.233 µM [falling, full curve, poor fit]
N#Cc1c(C(F)(F)F)cc(-c2cccs2)nc1SCC(=O)Nc1ccc(F)cc1 | – | inconclusive: 18.5 µM [falling, single point]
O=C(CSc1nc2c([nH]c3ccccc32)c(=O)n1-c1ccc(F)cc1)NC1CCCCC1 | – | inconclusive: 14.7 µM [falling, single point]
Cc1ccc(C(c2ccccc2)c2c(C)[nH]c3ccccc23)s1 (configuration not stated) | – | inconclusive: 13.1 µM [falling, partial curve]
CCc1ccc(CNC(=O)COc2cc(=O)n(CC)c3ccccc23)cc1 | inactive: 8.06% | –
CCSc1oc(-c2ccc(F)cc2)nc1S(=O)(=O)c1ccc(C)cc1 | inactive: -11.9% | –
Cc1ccc(CN2CCC(CNC(=O)c3cc4ccc5cccnc5c4[nH]3)CC2)cc1 | – | inconclusive: 26.1 µM [falling, single point]
Cc1ccc(-c2cn3c(n2)sc2cc(C(=O)NCc4cccs4)ccc23)cc1 | – | inconclusive: 26.1 µM [falling, single point]
O=C(NCc1ccco1)C1CCN(C(=O)N2CCOc3ccc(Cl)cc32)CC1 | inactive: -11.2% | –
CCC1CCCCN1CCCNC(=O)c1ccc2c(c1)N(Cc1cccc(C)c1)C(=O)c1ccccc1S2(=O)=O (configuration not stated) | – | inconclusive: 6.56 µM [falling, partial curve, poor fit]
CCCCOC(=O)c1ccc(NC(=O)c2ccc3c(c2)CCN3S(=O)(=O)c2ccccc2)cc1 | – | inconclusive: 16.5 µM [falling, partial curve]
CCC(=O)N1CCc2cc(Br)cc(S(=O)(=O)N3CCCC(C(=O)Nc4ccc(CC)cc4)C3)c21 (configuration not stated) | inactive: -0.347% | –
O=C(Nc1ccc(Br)cc1)c1cc(S(=O)(=O)N2CCc3ccccc32)ccc1F | inactive: 6.25% | –
COc1ccc(NC(=O)CN2C(=O)C(=O)c3ccccc32)c(OC)c1 | inactive: -5% | –
Cc1ccc(-c2nc(-c3cccs3)c(-c3cccs3)[nH]2)cc1 | inactive: -4.58% | –
Cc1ccc(S(=O)(=O)c2nnn3c2nc(NC2CCCCC2)c2sccc23)cc1C | – | inconclusive: 5.21 µM [falling, single point]
CCCN1CCN(CCCNC(=O)c2cc3c(s2)-c2c(C)cccc2OC3)CC1 | – | active: 18.5 µM
CCOC(=O)N1CCN(Cc2nc3cc(NC(=O)CC(C)C)ccc3n2C(C)C)CC1 | – | inconclusive: 3.69 µM [falling, full curve, poor fit]

Copied from the results shown, 2 compounds:
SMILES | activity, negative = inhibition | Potency
Cc1ccc(NC(=O)Cn2c(=O)c(CNc3ccccc3)cc3cc4c(cc32)OCCO4)cc1 | inactive: 0% | –
Cc1nn(CCCC(=O)Nc2cccc(F)c2)c(=O)c2c1sc1ccccc12 | – | inconclusive: 0.521 µM [falling, full curve]

Further compounds follow.

SMILES | activity, negative = inhibition | Potency
Nc1nonc1-c1nc2ccccc2n1CC(=O)Nc1cccc(C(F)(F)F)c1 | – | inconclusive: 14.7 µM [falling, single point]
CCCCCCSc1nc(N)c2c3c(sc2n1)CCCC3C (configuration not stated) | – | inconclusive: 0.0041 µM [activator, full curve, poor fit]
Cc1ccc(NC(=O)Cn2c(=O)nc(-c3ccccc3F)c3cc(Cl)ccc32)c(Br)c1 | – | inconclusive: 0.131 µM [falling, full curve, poor fit]
CCOc1ccc(S(=O)(=O)N(CC(=O)NCCSCc2ccccc2)c2ccccc2)cc1 | – | inconclusive: 18.5 µM [falling, single point]
O=C(NCCc1ccccc1)c1cc(-c2ccccc2)nc2n[nH]c(-c3ccccc3)c12 | – | inconclusive: 18.5 µM [falling, single point]
Cc1ccc(C)c(NC(=O)Cn2c(=O)n(Cc3ccco3)c(=O)c3ccc(C(=O)NC4CCCC4)cc32)c1 | – | inconclusive: 16.5 µM [falling, partial curve, poor fit]
N#Cc1c(-c2ccccc2)cc(-c2ccccc2)nc1SCC(=O)Nc1ccc(Cl)cc1 | – | inconclusive: 26.1 µM [falling, single point]
CC(=O)Nc1cccc(-c2nnc(SCC(=O)c3cc([N+](=O)[O-])ccc3Br)o2)c1 | – | inconclusive: 26.1 µM [falling, partial curve, poor fit]
FC(F)(F)c1ccc(C2=Nc3ccccc3NC(c3cccs3)=N2)cc1 | inactive: -26.8% | –
Cc1cccc2c1-c1sc(C(=O)NCCCN3CCN(c4cccc(Cl)c4)CC3)cc1CO2 | – | inconclusive: 13.1 µM [falling, single point]
CC(C)(C)c1ccc(OCC(=O)N(Cc2ccco2)Cc2ccccc2F)cc1 | – | inconclusive: 23.3 µM [falling, single point]
CC(C)S(=O)(=O)c1oc(-c2ccc(F)cc2)nc1S(=O)(=O)c1ccc(F)cc1 | – | active: 0.826 µM
Cc1ccc(S(=O)(=O)c2nc(-c3ccccc3)oc2N2CCCCCC2)cc1 | – | inconclusive: 26.1 µM [falling, single point]
Cc1cccc(NC(=O)CSc2nc3ccccc3c3nc(CCn4cncc4C)nn23)c1 | inactive: -11.5% | –
COc1cc(-c2nc3cnccn3c2Nc2ccc(C(C)C)cc2)ccc1O | – | inconclusive: 23.3 µM [falling, single point]
CC(=O)c1c(C)oc2ccc(N(C(=O)c3ccncc3)S(=O)(=O)c3ccc(F)cc3C)cc12 | inactive: -30.3% | –
CC(C)(C)c1ccc(S(=O)(=O)N2CCC(c3ccncc3)CC2)cc1 | – | inconclusive: 18.5 µM [falling, single point]
CC(=O)Nc1c(C(=O)Nc2ccccc2F)oc2ccccc12 | inactive: -23.3% | –
COc1ccc(NC(=O)c2sc3nc4c(cc3c2N)CCCCCC4)cc1Cl | – | inconclusive: 18.5 µM [falling, partial curve, poor fit]
Cc1ccccc1NC(=O)Cn1c(=O)n(-c2ccc(CC(=O)NCC3CCCO3)cc2)c(=O)c2ccccc21 (configuration not stated) | inactive: 7.61% | –
COCCNC(=O)c1ccc2c(c1)N=C(C)c1cc(C)ccc1S2 | – | inconclusive: 5.21 µM [falling, single point]
